Data on 59 molecules can be found in PubChem BioAssay AID2685 (National Center for Advancing Translational Sciences (NCATS), 2010).

This is one part of the list. Further columns of the screen follow, without active or inactive calls. Most of these compounds were active or inconclusive in the main read-out, so they are no random draw. Potencies come from curve fits of mixed quality, noted in brackets.

The test can be described thus: qHTS Assay for Lipid Storage Modulators in Drosophila S3 Cells.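 On cell number change: cells counted by Cell Tracker Red CMTPX staining in the red channel.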 The following applies: BODIPY lipid droplet fluorescence, 18-24 h; for cell number change: measured here: cell count max response, cells fed with added oleic acid. In short, it runs like this:
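Drosophila S3 cells got compounds at several concentrations plus oleic acid (400 uM solution). Laser-scanning cytometry with 488 nm excitation read lipid droplets at 500-530 nm and cells at 575-640 nm. Percent activity was relative to 20 uM Triacsin C.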
On the technique in general: qHTS replaces the single test concentration by a dilution series.

Setting [1] is: measured here: cell number channel AC50, cells fed with added oleic acid.
The mark [2] stands for this setting: measured here: lipid fluorescence (Fed channel) AC50, cells fed with added oleic acid.

`O=C(c1ccccc1)c1ccc2nc[nH]c2c1`: the cell number change was determined as 52.6%. Also, the AC50 under setting [1] is 18.4 µM [rising, single point]. Under setting [2], the AC50 is 0.58 µM [falling, single point].

On to `CCn1ccnc1C(O)c1cccc(OC)c1` (stereo not given), for which the cell number change was -0.768%. For the same molecule, under setting [2], the AC50 was 0.184 µM [falling, full curve].

Regarding `CCOC(=O)CCc1c(C)nc(SCCCn2c(=O)[nH]c3ccccc32)c(C#N)c1C`, the AC50 under setting [1] is 0.103 µM [rising, full curve, poor fit].

`COc1ccc(/C=C/C(=O)NCC2COc3ccccc3O2)c(OC)c1` (stereo not given): the AC50 under setting [1] was 0.231 µM [rising, full curve, poor fit].

Consider `CCOC(=O)c1c(C)oc2c1c(C(c1cccnc1)N1CCCCC1)c(O)c1ccccc12` (stereo not given), for which the cell number change is 11.5%. Under setting [1], the AC50 is 1.46 µM [rising, partial curve]. The AC50 under setting [2] was 1.64 µM [rising, partial curve].

As to `O/N=C(\c1ccc(Cl)cc1)c1ncc(C(F)(F)F)cc1Cl`, the cell number change is -77.5%. Moreover, the AC50 under setting [1] was 23.1 µM [falling, partial curve, poor fit]. Further, the AC50 under setting [2] is 20.6 µM [falling, partial curve].

As to `Cc1cccc(NC(=O)CN2CCN(C(=O)c3ccc(-c4nc5ccccc5s4)o3)CC2)c1C`, the cell number change amounted to 1.36%. Under setting [2], the AC50 is 0.146 µM [falling, full curve, poor fit].

As to `COc1cc(-c2noc(C)c2-c2ccc3[nH]ccc3c2)cc(OC)c1OC`, the cell number change was -5.18%.

On to `Cc1c(C(=O)Nc2cccc(Cl)c2)oc2ccc(S(=O)(=O)N3CCC4(CC3)OCCO4)cc12`, for which the cell number change is -18.8%. Also, the AC50 under setting [1] is 7.31 µM [falling, partial curve, poor fit]. The AC50 under setting [2] is 7.31 µM [falling, partial curve, poor fit].

In the case of `COc1ccc(C(=O)Nc2ccc(S(=O)(=O)NC(C)=O)cc2)cc1`, the cell number change is -119%. Also, the concentration at half-maximal activity (AC50) under setting [1] is 20.6 µM [falling, single point].

On to `CNc1ccccc1`, for which the cell number change was 9.9%. Also, the AC50 under setting [2] was 0.092 µM [rising, single point].

As for `Cc1ccc(C(=O)COC(=O)C(C)N2C(=O)C3C4C=CC(C4)C3C2=O)cc1` (stereo not given), the cell number change came out at 11.5%. In addition, the AC50 under setting [2] is 13 µM [rising, partial curve, poor fit].

Turning to `CN1CCN(C(=O)/C(=C/c2ccccc2F)NC(=O)c2ccccc2)CC1`, the cell number change was -12.4%.

Consider `COc1ccc(C2=NS(=O)(=O)N(C)C(C(=O)NCc3ccc4c(c3)OCO4)=C2)cc1OC`, for which the cell number change came out at 11.2%. For the same molecule, under setting [1], the concentration at half-maximal activity (AC50) is 0.058 µM [rising, full curve, poor fit].

In the case of `COc1ccc(S(=O)(=O)N2CC=C(C(=O)NC3CCCC3)CC2)cc1`, the cell number change was -13.9%. Moreover, under setting [2], the AC50 was 4.61 µM [falling, partial curve].

With `O=C(NNC(=S)NCc1ccco1)c1ccc(Cl)s1`, the cell number change was -48.2%. Also, the AC50 under setting [1] is 16.4 µM [falling, single point]. The AC50 under setting [2] is 18.4 µM [falling, single point].

As for `Cc1ccc(C2C(C#N)=C(N)Oc3nc(-c4ccccc4)[nH]c32)o1` (stereo not given), the cell number change was -21.7%. In addition, the AC50 under setting [2] is 29.1 µM [rising, single point].

Consider `COc1ccc2c(Cl)c(C(=O)N/N=C/c3ccncc3)sc2c1`, for which the cell number change stood at 52.8%. Besides, under setting [1], the concentration at half-maximal activity (AC50) is 7.31 µM [rising, full curve, poor fit]. The AC50 under setting [2] was 16.4 µM [falling, partial curve].

For `COc1ccc(S(=O)(=O)N2CCC(C(=O)Nc3nnc(C)s3)CC2)cc1OC`, the cell number change stood at 13.8%. In addition, the AC50 under setting [2] is 0.82 µM [falling, full curve, poor fit].

With `COc1ccc2[nH]c3c(N4CC(C)OC(C)C4)ncnc3c2c1` (stereo not given), the AC50 reads like this: under setting [1], 3.66 µM [rising, partial curve]; under setting [2], 0.116 µM [rising, full curve, poor fit].

For the molecule `CNc1nc(-c2ccc(S(=O)(=O)N3CCCCC3)cc2)cs1`, the cell number change is -11.3%. Also, the half-maximal activity concentration (AC50) under setting [2] was 0.58 µM [rising, single point].

With `CCOC(=O)C1=C(C)SC2=NS(=O)(=O)CCN21`, the cell number change amounted to 0.875%. For the same molecule, under setting [2], the AC50 was 0.0731 µM [falling, full curve, poor fit].

As for `Cc1ccc(NC(=O)COC(=O)c2ccc3c(c2)NC(=O)C2CCCN32)cc1` (stereo not given), the cell number change came to 7.11%. The AC50 under setting [2] was 1.46 µM [rising, single point].

As to `Nc1c(C(=O)CCC(=O)O)oc2ccc(Cl)cc12`, the cell number change is -1.1%.

Regarding `COc1cccc(NC(=O)CCP(C)(=O)O)c1`, the cell number change stood at 1.35%.

Turning to `COc1ccc(NS(=O)(=O)c2ccc3c(c2)NC(=O)CCS3)cc1Cl`, the cell number change is -0.472%.

Consider `CCCCNS(=O)(=O)c1ccc2nc(-c3cccnc3)cc(C(=O)NC(C)CC)c2c1` (stereo not given), for which the cell number change stood at 11.6%. Further, under setting [2], the AC50 is 0.184 µM [rising, single point].

For `CCN(c1ccccc1)S(=O)(=O)c1ccc(N)c(OC)c1`, the cell number change came to 58.6%. For the same molecule, under setting [1], the AC50 was 0.0517 µM [rising, full curve, poor fit]. Moreover, the half-maximal activity concentration (AC50) under setting [2] is 0.184 µM [rising, full curve].

`NCCCC(=O)N1c2ccccc2Sc2ccc(Cl)cc21`: the cell number change is -8.51%.

For `O=C(O)C1C2C=CC(C2)C1C(=O)N1CCOCC1` (stereo not given), the cell number change was -199%. The AC50 under setting [1] was 23.1 µM [falling, partial curve].

For `CCN(CC)S(=O)(=O)c1cc(NC(=O)c2ccc(-n3cncn3)c([N+](=O)[O-])c2)ccc1C`, the cell number change is -45.3%. Moreover, the half-maximal activity concentration (AC50) under setting [1] is 8.2 µM [falling, partial curve].

For `NC(=O)CNc1ncc(C(F)(F)F)cc1Cl`, the cell number change amounted to 54.4%. For the same molecule, under setting [1], the AC50 is 29.1 µM [rising, partial curve, poor fit].

As to `O=C1C2C(C(=O)N1CCN1CCN(Cc3ccc([N+](=O)[O-])cc3)CC1)[C@H]1C=C[C@@H]2C1` (stereo not given in full), the cell number change amounted to 13.9%. The half-maximal activity concentration (AC50) under setting [2] was 29.1 µM [falling, single point].

For the molecule `CCN(CC)S(=O)(=O)c1cc(NC(=O)C(C)N2CCc3ccccc32)ccc1C` (stereo not given), under setting [1], the AC50 is 3.26 µM [rising, single point].

For the molecule `CN(C)/C=C(/C(=O)c1ccc(Cl)c(Cl)c1)S(C)(=O)=O`, the cell number change is -4.92%.

Turning to `CC1(C)Cc2cccc(OCC(=O)N3CCN(c4ccccc4F)CC3)c2O1`, the cell number change amounted to 74.5%.

In the case of `COc1ccccc1C(=O)NCCC(=O)NCC(c1ccccc1)N(C)C` (stereo not given), the cell number change worked out at 48.6%. In addition, the AC50 under setting [1] is 29.1 µM [rising, single point]. The AC50 under setting [2] is 29.1 µM [rising, single point].

As for `Clc1ccccc1-c1nnc(-c2cccs2)o1`, the cell number change was -34.9%. Under setting [1], the AC50 was 20.6 µM [falling, single point]. The AC50 under setting [2] is 18.4 µM [falling, partial curve].

In the case of `CCOC(=O)Cn1nnc2c(sc3nc4c(c(-c5ccccc5)c32)CCC4)c1=O`, the cell number change came out at 35.1%. The AC50 under setting [1] is 0.326 µM [rising, full curve]. Under setting [2], the AC50 is 0.411 µM [rising, full curve].

Regarding `Cc1ccccc1NC(=O)Cc1nc(COC(=O)c2cccnc2Cl)cs1`, the cell number change is -15.7%. Also, the AC50 under setting [2] was 29.1 µM [falling, single point].

With `Nc1ccc(S(=O)(=O)c2ccccc2)nc1`, the cell number change was found to be 23%. Besides, the concentration at half-maximal activity (AC50) under setting [2] is 5.8 µM [rising, full curve, poor fit].

As for `COc1cc(S(C)=O)ccc1-c1nc2ncccc2[nH]1` (stereo not given), the cell number change was found to be 2.83%. For the same molecule, the AC50 under setting [2] was 2.06 µM [rising, single point].

As for `COc1ccc(-c2nnc(SCC(=O)Nc3cccc(Cl)c3)o2)cc1`, the cell number change is -31.7%. Also, under setting [1], the AC50 is 18.4 µM [falling, single point].

In the case of `N#CCCn1ccc(NC(=O)c2ccc(Cl)cc2)n1`, the cell number change is 50.6%. For the same molecule, under setting [1], the concentration at half-maximal activity (AC50) was 2.06 µM [rising, full curve].

As for `COc1c2ccoc2c(OC)c2oc(=O)ccc12`, the cell number change was -3.7%. The concentration at half-maximal activity (AC50) under setting [2] is 0.0366 µM [rising, full curve, poor fit].

`COc1ccc(Nc2ncnc3sccc23)cc1`: the cell number change was -7.94%. Besides, the AC50 under setting [1] is 0.231 µM [falling, full curve, poor fit]. For the same molecule, the half-maximal activity concentration (AC50) under setting [2] was 0.58 µM [falling, single point].

Regarding `CC(=O)Nc1ccc(S(=O)(=O)N2CCSC2)cc1`, the cell number change came out at 13%. Besides, the AC50 under setting [2] is 6.51 µM [rising, single point].

For the molecule `COc1ccccc1C(=O)NCCC(=O)Nc1ccc(S(=O)(=O)Nc2ncccn2)cc1`, the cell number change was -38.8%. The AC50 under setting [1] was 29.1 µM [falling, single point]. The AC50 under setting [2] is 0.461 µM [falling, partial curve, poor fit].

In the case of `Cc1cccc(-n2c(-c3ccco3)nc3nc4ccccc4nc32)c1`, the cell number change worked out at 7.17%. Moreover, the AC50 under setting [2] is 3.26 µM [rising, single point].

For `CCOC(=O)C(NC(=O)CC(C)C)(Nc1cc(C)on1)C(F)(F)F` (stereo not given), the cell number change was -19.5%. The AC50 under setting [2] was 23.1 µM [falling, partial curve].

Consider `COc1ccc(-c2nncnn2)cc1`, for which the cell number change was -17.5%. Further, the AC50 under setting [2] was 29.1 µM [falling, single point].

With `CCOC(=O)NC(NC(=S)Nc1ccccc1OC)C(Cl)(Cl)Cl` (stereo not given), the cell number change is -30.8%. Besides, under setting [1], the AC50 is 29.1 µM [falling, single point]. The AC50 under setting [2] is 0.0231 µM [falling, full curve, poor fit].

On to `CCOc1cc2[nH]c(=S)n(CCCC(=O)NCc3ccco3)c(=O)c2cc1OCC`, for which the cell number change is -18.1%. Moreover, the AC50 under setting [2] was 29.1 µM [falling, single point].

Consider `CC(C)(C)NC(=O)Cn1cnc2cc([N+](=O)[O-])ccc2c1=O`, for which the cell number change came to 19.4%.

For `C[C@@H]([C@H](O)c1ccccc1)N(C)C(=S)Nc1ccccc1`, the cell number change is -29.1%. Also, the AC50 under setting [2] is 29.1 µM [falling, single point].

In the case of `CCCCOc1ccc(-c2nnn(CC(=O)NCc3ccco3)n2)cc1`, the cell number change was 8.35%. For the same molecule, the half-maximal activity concentration (AC50) under setting [2] is 3.66 µM [rising, single point].

`COc1ccc(C2=[N+]([O-])C(C)(C)N(O)C2(C)C)cc1`: the cell number change was -24.5%. For the same molecule, the concentration at half-maximal activity (AC50) under setting [2] was 0.146 µM [falling, full curve, poor fit].

With `COc1ccccc1CN1C(=O)c2ccccc2C1C(=O)NC1CCC(C)CC1` (stereo not given), the cell number change was -10.4%. Further, the AC50 under setting [2] is 0.731 µM [rising, single point].

As to `COc1cccc(NC(=O)CN(C)C(=O)c2cc(C3CC3)nn2-c2ccccc2)c1`, the cell number change came out at 35.5%. Also, under setting [1], the AC50 was 23.1 µM [rising, single point]. Under setting [2], the concentration at half-maximal activity (AC50) is 20.6 µM [rising, partial curve, poor fit].

The term AC50 denotes the midpoint of the concentration-response curve, whichever way the signal moves. Lower therefore signals activity at low concentration.
